Data from patent publication US9643969B2, “(aza)indolizine derivative and pharmaceutical use thereof” (KISSEI PHARMACEUTICAL CO., LTD., priority 2010, dated 2017).
Some entries share one result that the patent states for a list of compounds.

Legend:
[1] = Hypouricemic effect (serum uric acid levels in rats); assay type: in vivo; settings: oral administration at 3 mg/kg; male CD (SD) IGS rats; serum at 2 hours after administration
Experimental: (1) Method of Measurement
Test compounds (1 mg/kg) suspended in 0.5% methylcellulose solution were orally administered to overnight fasted male CD (SD) IGS rats (5-week-old, Charles River Japan). At 2 hours after administration, blood was collected under ether anesthesia from abdominal aorta, and serum was separated according to a general method. Serum uric acid levels were determined by use of uric acid measurement kit (Uric acid C-Test Wako: manufactured by Wako pure chemical), and percent decrease in uric acid was calculated according to the formula described below. Percent decrease in uric acid (%)=(Serum uric acid levels in control animals−Serum uric acid levels in animals administered test compounds)×100/Serum uric acid levels in control animals (2) Results

human URAT1 = target: T1, human URAT1 (Homo sapiens, UniProt Q96S37); experiment: Inhibitory activity of uric acid transport with human URAT1-expressing cells; assay type: cell-based; settings: 10 μM test compound; URAT1-expressing HEK293 cells; 14C uric acid 50 μM, 2 minutes at 37° C.
T1 construct: expressed in transfected cells; host or cells: HEK293 cells
T1 sequence (Q96S37 1-553): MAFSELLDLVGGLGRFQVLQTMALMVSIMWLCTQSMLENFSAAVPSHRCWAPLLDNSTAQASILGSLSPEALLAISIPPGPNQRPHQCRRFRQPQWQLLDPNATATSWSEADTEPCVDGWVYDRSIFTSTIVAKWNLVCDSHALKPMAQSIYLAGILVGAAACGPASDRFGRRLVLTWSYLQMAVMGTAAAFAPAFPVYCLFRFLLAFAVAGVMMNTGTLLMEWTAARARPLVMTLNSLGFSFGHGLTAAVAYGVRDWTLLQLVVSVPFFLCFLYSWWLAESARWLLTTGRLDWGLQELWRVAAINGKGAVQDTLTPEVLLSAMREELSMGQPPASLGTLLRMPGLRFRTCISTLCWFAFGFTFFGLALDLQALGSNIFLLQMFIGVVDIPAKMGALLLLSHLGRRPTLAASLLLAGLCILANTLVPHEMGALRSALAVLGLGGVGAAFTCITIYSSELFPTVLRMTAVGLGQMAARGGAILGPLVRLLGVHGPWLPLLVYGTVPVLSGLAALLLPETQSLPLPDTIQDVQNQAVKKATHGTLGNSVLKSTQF
Experimental: Inhibitory Activity of Uric Acid Transport with Human URAT1-Expressing Cells
(1) Cells Used in the Test
URAT1-expressing HEK293 cells (HEK293 cells transfected with vector containing human URAT1 cDNA) and control cells (HEK293 cells transfected with vector alone) were used.
URAT1-expressing cells and control cells were seeded in collagen I-coated 24-well plates (manufactured by BD FALCON) at 1 to 4×10^5 cells/well, and cultured in CO2 incubator (37° C., CO2: 5%) for 1 to 3 days, and then the following measurement of uric acid transport was conducted. […]
After the medium was removed from the plates in which cells were seeded, and 1 mL of HBSS was added to the cells. […] The radioactivity was measured by means of a liquid scintillation counter. […]
Protein concentration in the cell lysates was determined by BCA Protein Assay Kit (manufactured by Pierce) and then amount of protein (mg/well) was calculated. […]
Uric acid uptake activity in each well was calculated by the following formula. Uric acid uptake activity (p mol/mg protein)=radioactivity (dpm/well)/[amount of protein (mg/well)×concentration of radioactivity in HBSS containing ^14C uric acid (dpm/p mol)]
Percent inhibition was calculated according to the following formula. […]

Row | Structure (SMILES) | percent decrease in uric acid [1] | percent inhibition of uric acid uptake (human URAT1)
1 | N#Cc1cc(-c2ccc(C(=O)O)c(O)c2)n2ncccc12 [Example 12] | not less than 60% | 
2 | N#Cc1cc(-c2ccc(C(=O)O)c(O)c2)c2cccnn12 [Example 2, 4-(7-Cyanopyrrolo[1,2-b]pyridazine-5-yl)-2-hydroxy benzoic acid] | not less than 60% | not less than 50%
